Reference: PMC6652807
No constants are given. Whether binding was seen depends on the method and setting. In cells and extracts the contact can be indirect. Some entries that bind do so weakly or less than the wild type.

Sequences of proteins named here, by UniProt entry; tags and fusion partners are left off.
UniProt Q15910: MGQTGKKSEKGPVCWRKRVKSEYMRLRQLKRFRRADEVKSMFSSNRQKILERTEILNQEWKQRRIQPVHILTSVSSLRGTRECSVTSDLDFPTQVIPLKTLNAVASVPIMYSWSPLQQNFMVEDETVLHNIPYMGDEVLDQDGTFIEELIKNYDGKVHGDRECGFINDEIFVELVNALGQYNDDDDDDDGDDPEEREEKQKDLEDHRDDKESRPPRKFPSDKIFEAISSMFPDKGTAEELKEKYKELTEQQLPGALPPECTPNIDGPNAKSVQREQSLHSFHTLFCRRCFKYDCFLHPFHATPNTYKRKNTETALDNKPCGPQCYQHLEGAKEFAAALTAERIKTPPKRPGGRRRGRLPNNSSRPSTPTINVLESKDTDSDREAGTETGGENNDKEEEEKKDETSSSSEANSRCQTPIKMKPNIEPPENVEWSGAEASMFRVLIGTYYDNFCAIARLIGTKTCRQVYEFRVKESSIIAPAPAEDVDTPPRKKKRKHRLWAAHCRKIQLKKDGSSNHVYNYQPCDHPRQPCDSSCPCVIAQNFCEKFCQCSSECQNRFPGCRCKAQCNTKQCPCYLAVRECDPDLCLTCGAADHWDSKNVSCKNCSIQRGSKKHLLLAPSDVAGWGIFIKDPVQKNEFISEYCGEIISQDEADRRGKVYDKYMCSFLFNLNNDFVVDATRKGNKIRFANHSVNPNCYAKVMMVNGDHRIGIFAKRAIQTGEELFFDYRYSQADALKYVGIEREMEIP
UniProt Q14680: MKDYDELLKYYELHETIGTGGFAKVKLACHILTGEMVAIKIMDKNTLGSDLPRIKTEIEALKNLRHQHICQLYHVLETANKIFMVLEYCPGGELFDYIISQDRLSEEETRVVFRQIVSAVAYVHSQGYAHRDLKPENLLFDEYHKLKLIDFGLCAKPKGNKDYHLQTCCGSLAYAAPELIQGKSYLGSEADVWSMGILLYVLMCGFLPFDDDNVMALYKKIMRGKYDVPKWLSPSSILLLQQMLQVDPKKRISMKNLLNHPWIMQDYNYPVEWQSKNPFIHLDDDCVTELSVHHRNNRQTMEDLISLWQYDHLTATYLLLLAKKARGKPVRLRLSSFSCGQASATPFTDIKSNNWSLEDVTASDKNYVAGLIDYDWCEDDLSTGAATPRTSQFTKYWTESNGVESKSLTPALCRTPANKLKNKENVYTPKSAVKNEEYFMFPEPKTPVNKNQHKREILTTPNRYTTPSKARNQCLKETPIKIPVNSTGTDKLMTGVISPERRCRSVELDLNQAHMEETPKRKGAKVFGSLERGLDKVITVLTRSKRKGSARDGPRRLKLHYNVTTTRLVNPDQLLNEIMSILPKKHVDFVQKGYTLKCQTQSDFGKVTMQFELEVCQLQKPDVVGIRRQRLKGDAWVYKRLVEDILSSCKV

Molecular target: enhancer of zeste homolog 2 (EZH2) (human (endogenous in GSCs from human GBM)) (UniProt Q15910)
Assay: co-IP; endogenous proteins; antibodies (anti-MELK, EZH2, NF-κB) cross-linked with protein A/G beads, incubated with 500 μg of GSC lysates overnight at 4°C; IgG as negative control; immunoblot of eluates; GSCs cultured with or without serum

binding: binds
Substance: maternal embryonic leucine-zipper kinase (MELK) (from UniProt Q14680 1-651)
